Primary screen of a compound library

Source: ChEMBL document CHEMBL3988442, “University of Dundee, Small-Polar-MMV Screening Library” (2021).

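Viability assay of Plasmodium falciparum sporozoites; the read-out is not stated. The concentration is filed as 10 mM, unlikely as a test dose, so the dose is not known. Higher reads as lower viability (inferred: compounds with an IC50 in retests scored well above the rest). Strong results were mostly tested again. Size under these conditions: about 34,000 compounds, about 280 of them at 50% or above in at least one test.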

Each number is a percent effect as filed.
The controls that fix the scale are not given in the record; negative values are as filed.
Compounds were drawn at random from those tested, without regard to their results.
Two or more numbers in one place are separate tests of the same structure; such repeats can differ widely.

[H][C@@]12CCN(C(=O)CCc3csc(N)n3)C[C@@]([H])(CC1)N2C read -12.24%.
Cc1cc(S(=O)(=O)NCc2cccc(C(=O)N3CCCC3)c2)c(C)s1 read -12.49%.
[H][C@]12CCN(C(=O)COC)CC[C@@]1([H])S(=O)(=O)N(Cc1cccnc1)C2 read 7.212%.
O=C(Nc1ccc(F)cc1)N1CCN(Cc2noc(C3CC3)n2)CC1 read -4.038%.
CC(=O)N(C)c1nc(CN2CCCC2Cn2cncn2)cs1 (stereo not drawn) read 4.88%.
CC(=O)Nc1ccc(CCC2(NC(=O)C3CC3)CCCCC2)cn1 read -4.987%.
O=C1CCC2(CCCN(c3ncc(F)cn3)CC2)N1CC1CC1 (stereo not drawn) read -10.39%.
Cc1nc(-c2ccccc2)cc(C2CCNCC2)n1.Cl read 13.37%.
CN(C)c1ccc(C(=O)N2CCCC(n3cccn3)C2)cn1 (stereo not drawn) read 4.866%.
O=C(c1ccco1)N1CCC2(CCC(=O)N2Cc2cccc(F)c2)CC1 read 6.444%.
NC(=O)c1ccc(C(=O)N2CCCCC2C2OCCO2)cc1 (stereo not drawn) read -12.8%.
COC(=O)COn1c(SCC(=O)OC)nc2ccccc2c1=O read 0.09083%.
Cc1cccc(S(=O)(=O)NCC2CCN(c3cnccn3)CC2)c1 read -6.714%.
NC(=O)Cn1cc(NC(=O)N2CCCC2)cn1 read 0.9662%.
O=C(O)C(F)(F)F.O=C(O)C(F)(F)F.c1ccc(N2CC[C@H](OCC3CC3)[C@@H]2Cc2cccnc2)nc1 read -2.997%.
[H][C@@]12C[C@H](C(=O)N3CCOCC3)[C@@]([H])(CN(C(=O)NCC3CCCCC3)C1)O2 read 9.625%.
O=C(O)C(F)(F)F.c1csc(CN2Cc3nccn3CC(Cn3cncn3)C2)n1 (stereo not drawn) read -10.2%.
CC(=O)NCCc1cc(N2CCN(C(C)=O)CC2)nc(C2CC2)n1 read -15.28%.
CCc1nc2n(n1)CC(NCc1noc(-c3ccccc3)n1)CC2 (stereo not drawn) read 11.65%.
O=C(O)C(F)(F)F.[H][C@]12CCN(C(=O)Cc3cccs3)C[C@@]1([H])OCCN(C(C)C)C2 read 7.374%.
O=C(c1cnccn1)N1CCc2onc(CN3CCOCC3)c2C1 read 5.486%.
O=C(O)C(F)(F)F.[H][C@@]12CN(Cc3cccs3)C[C@]1([H])CN(C(=O)c1cccn1C)C2 read 12%.
Cc1nc(-c2ccsc2)ccc1C(=O)NCCN1CCN(C)CC1 read 2.549%.
COc1ccc(-c2nc(C(=O)NCC3CCOC3)cs2)cc1OC (stereo not drawn) read 18.93%.
CC(NC(=O)CSCC(=O)Nc1ccccc1)c1ccccc1 (stereo not drawn) read -7.742%.
Cc1cccc(CN2CCC3(CC2)CN(c2cccnc2)C(=O)CO3)n1.O=C(O)C(F)(F)F.O=C(O)C(F)(F)F read 15.48%.
CCOc1cc(/C=C/c2ncc(C(=O)NC)s2)ccc1OC read -12.62%.
CCN(Cc1nc2c(cnn2C)c(=O)[nH]1)Cc1ccccc1Cl read 6.769%.
CCOc1ccc(S(=O)(=O)NC(=O)CC2CCCO2)cc1 (stereo not drawn) read 7.791%.
COC(=O)CCC(=O)N1CCC2(CN(Cc3ccccc3F)C2)C1 read 15.88%.
Cc1cc(CC(=O)N2CCCC2c2nc(C(C)C)no2)on1 (stereo not drawn) read -2.24%.
Cc1sc2ncc(-c3ccnc(NC4CCN(C)CC4)n3)c(=O)n2c1C read -5.843%.
CCc1noc(C(C)N2CCN(Cc3cnc(C)cn3)CC2)n1 (stereo not drawn) read -15.09%.
O=S(=O)(CCCN1CCc2c(ncn2C2CC2)C1)c1ccccc1 read -42.48% & -37.35%.
COCCn1c(-c2cccc(OC)c2)cnc1NC(=O)NC(C)C read -11.53%.
O=C(CC1CN(Cc2ccccc2)CCO1)NCCN1CCOCC1 (stereo not drawn) read -28.88% & -25.91%.
COc1cc(C(C)=O)ccc1OCC(=O)N(C)Cc1cnn(C)c1 read 6.275%.
Cn1nc(CN2CCCCC2)c2c1CN(C(=O)c1cccc(Cl)c1)C2 read -0.6188%.
O=C(c1cnccn1)N1CCN(Cc2csc(-c3ccccc3)n2)CC1 read 9.607%.
CCNC(=O)NC(=O)CNc1cc(C#N)ccc1OCC read 6.13%.
Cc1ccc(CNC(=O)C2CCN(C(=O)c3ccccc3)CC2)n1C read -13.71%.
Cc1ccc(CN2Cc3nnn(C)c3C(COCC3CC3)C2)s1.O=C(O)C(F)(F)F (stereo not drawn) read 2.719%.
O=C(c1cc[nH]n1)N1CCCC1c1cc(Nc2ccccn2)n[nH]1 (stereo not drawn) read 7.946%.
COc1nn(C)cc1C(=O)N1CCC(c2nnc(-c3ccsc3)o2)CC1 read 5.282%.
Nc1nc(N)c2c(n1)OC1(CCN(C(=O)CC3CCCNC3)CC1)C2 (stereo not drawn) read 7.187%.
CC1CCCN(CCNC(=O)c2cncnc2C(C)C)C1 (stereo not drawn) read -9.63%.
CC(C)N1CCC(c2cnc(-c3cncnc3)cn2)CC1 read -4.18%.
O=S1(=O)c2cccnc2OC(COc2ccccc2)CN1CC1CC1 (stereo not drawn) read -14.83%.
CCC(=O)N1CCCCC1c1nc(O)c2c(n1)CN(C(C)=O)CC2 (stereo not drawn) read -2.396%.
CC(C)CCc1nc(CNCC2CCCN2c2cccnn2)cs1 (stereo not drawn) read 15.33%.
CCNc1ccnc(CN2CCCC2C(=O)Nc2nccs2)c1 (stereo not drawn) read -6.128%.
COc1ccc(CN2CC(O)CN(C(=O)CC(C)C)CC2=O)cc1 (stereo not drawn) read 3.542%.

Repeated from the top, 3 entries:

- [H][C@@]12CCN(C(=O)CCc3csc(N)n3)C[C@@]([H])(CC1)N2C | -12.24%
- Cc1cc(S(=O)(=O)NCc2cccc(C(=O)N3CCCC3)c2)c(C)s1 | -12.49%
- [H][C@]12CCN(C(=O)COC)CC[C@@]1([H])S(=O)(=O)N(Cc1cccnc1)C2 | 7.212%